Measurements reported in PubChem BioAssay AID504793 (Drosophila RNAi Screening Center, 2011)

Aim: 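Genes required for cells to halt at G2/M after double-strand DNA breaks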 (primary screen)
Cell system: Drosophila S2R+ cells
Knock-down reagent: long dsRNA against Drosophila genes, about 0.25 µg dsRNA per well
Duration: 4 days of dsRNA, then 4 hours of drug before read-out
Conditions: doxorubicin 0.5 µM for 4 hours to cause double-strand breaks, in cells also given a low, harmless dose of dsRNA against nbs to sensitise the assay
Measured: 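Mitotic index as the number of phospho-histone H3-positive cells in each well following doxorubicin, given as raw counts without normalisation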
Scale: mitotic cells: higher = more cells in mitosis, weaker G2 arrest
Rule for the call: 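Genes are called active only when high mitotic counts were reproduced with independent dsRNAs and mitosis was checked for delay without damage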
Calls: active = confirmed in follow-up tests; inactive = not confirmed
In all, the deposit lists about 23,000 reagents; below is an unselected part of those that have a named target and a result. In the full data, 62 (0.27%) were called active. 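Calls come from follow-up tests whose scores are not deposited, so confirmed genes may have low counts here; counts are not normalised per plate.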 Raw values are not corrected between plates. Reagents against one gene are numbered here. A plus sign joins genes that one reagent is predicted to hit.

Gene	reagent	mitotic cells, replicate 1	mitotic cells, replicate 2	outcome
CG12947	1	9		inactive
verm (vermiform)	1	3		inactive
verm (vermiform)	2	5		inactive
Dnaaf3 (Dynein axonemal assembly factor 3)	1	7		inactive
CG15695	1	12		inactive
CG15695	2	11		inactive
Cubn2 (Cubilin 2)	1	8		inactive
Cubn2 (Cubilin 2)	2	7		inactive
Tsp (Thrombospondin)	1	2		inactive
Tsp (Thrombospondin)	2	4		inactive
Top2 (Topoisomerase 2)	1	70		active
CG13325	1	6		inactive
CG13325	2	5		inactive
Obp51a (Odorant-binding protein 51a)	1	8		inactive
mtrm (matrimony)	1	16		inactive
CG42268	1	9		inactive
CG42268	2	7		inactive
CG42268	3	11		inactive
CG42268	4	5		inactive
CG42268	5	2		inactive
Tdc1 (Tyrosine decarboxylase 1)	1	8		inactive
CG12341	1	11		inactive
CG13728	1	4		inactive
AOX1 (Aldehyde oxidase 1)	1	8		inactive
AOX1 (Aldehyde oxidase 1)	2	6		inactive
Afti (Aftiphilin)	1	8		inactive
Afti (Aftiphilin)	2	6		inactive
LeuRS-m (Leucyl-tRNA synthetase, mitochondrial)	1	8		inactive
LeuRS-m (Leucyl-tRNA synthetase, mitochondrial)	2	10		inactive
bisc (biscotti)	1	6		inactive
bisc (biscotti)	2	11		inactive
mthl6 (methuselah-like 6)	1	3		inactive
ms(3)76Ba (male sterile (3) 76Ba)	1	7		inactive
CG13640	1	18		inactive
CG34229	1	3		inactive
CG31344	1	3		inactive
CG31344	2	6		inactive
pic (piccolo)	1	20		active
row (relative of woc)	1	4		inactive
row (relative of woc)	2	7		inactive
RpL35A (Ribosomal protein L35A)	1	4		inactive
Bub3	1	9		inactive
Bub3	2	10		inactive
Rad60	1	10		inactive
CG32212 + hpRNA:CR33940	1	8		inactive
CG18540	1	7		inactive
CG18540	2	4		inactive
dimm (dimmed)	1	7		inactive
CG13540	1	6		inactive
CG13562	1	9		inactive
CG13562	2	7		inactive
ase (asense)	1	4		inactive
Osi7 (Osiris 7)	1	13		inactive
Osi7 (Osiris 7)	2	3		inactive
RhoGEF2 (Rho guanine nucleotide exchange factor 2)	1	7		inactive
RhoGEF2 (Rho guanine nucleotide exchange factor 2)	2	5		inactive
CG31051	1	11		inactive
mRpS22 (mitochondrial ribosomal protein S22)	1	7		inactive
mRpS22 (mitochondrial ribosomal protein S22)	2	4		inactive
Crag	1	7		inactive
Hsdl2 (Hydroxysteroid dehydrogenase like 2)	1	2		inactive
Hsdl2 (Hydroxysteroid dehydrogenase like 2)	2	6		inactive
CG10165	1	6		inactive
CG9517 (retired record)	1	25		inactive
CG9517 (retired record)	2	14		inactive
CG9517 (retired record)	3	8		inactive
sosie	1	9		inactive
sosie	2	8		inactive
sosie	3	7		inactive
Rbp9 (RNA-binding protein 9)	1	4		inactive
Rbp9 (RNA-binding protein 9)	2	1		inactive
Rbp9 (RNA-binding protein 9)	3	7		inactive
Osbp (Oxysterol binding protein)	1	7		inactive
Pcp (Pupal cuticle protein)	1	8		inactive
Spn42Da (Serpin 42Da)	1	4		inactive
CG3568	1	9		inactive
CG3568	2	3		inactive
CG1971	1	7		inactive
CG1971	2	1		inactive
CG11192	1	2		inactive
CG11192	2	10		inactive
RpL28 + snoRNA:Me28S-C3351	1	10		inactive
CG11710	1	4		inactive
CG11710	2	9		inactive
cno (canoe)	1	5		inactive
cno (canoe)	2	82		inactive
cno (canoe)	3	5		inactive
cno (canoe)	4	12		inactive
CG30419	1	2	18	inactive
CG30419	2	8		inactive
CG30419	3	8		inactive
CG11050	1	12		inactive
CG11050	2	5		inactive
CG12106	1	7		inactive
CG14423	1	9		inactive
CG14423	2	7		inactive
CG10324	1	1		inactive
CG10660	1	6		inactive
CG10660	2	2		inactive
PGRP-SB2 (Peptidoglycan recognition protein SB2)	1			inactive
clu (clueless)	1	6		inactive
clu (clueless)	2	8		inactive
Pink1 (PTEN-induced putative kinase 1)	1	9		inactive
Pde1c (Phosphodiesterase 1c)	1	4		inactive
Pde1c (Phosphodiesterase 1c)	2	3		inactive
Pde1c (Phosphodiesterase 1c)	3	1		inactive
Pde1c (Phosphodiesterase 1c)	4	3		inactive
Pde1c (Phosphodiesterase 1c)	5	4		inactive
Pde1c (Phosphodiesterase 1c)	6	4		inactive
Pde1c (Phosphodiesterase 1c)	7	7		inactive
Polr2M (RNA polymerase II subunit M)	1	13		inactive
Polr2M (RNA polymerase II subunit M)	2	9		inactive
Srr (Serine racemase)	1	6		inactive
Srr (Serine racemase)	2	6		inactive
l(2)03659 (lethal (2) 03659)	1	10		inactive
l(2)03659 (lethal (2) 03659)	2	9		inactive
sob	1	3		inactive
sob	2	3		inactive
CG11601	1	10		inactive
Obp83g (Odorant-binding protein 83g)	1	4		inactive
Obp83g (Odorant-binding protein 83g)	2	2		inactive
CG5033	1	9		inactive
CG5033	2	1		inactive
Mabi (Mabiki)	1	14		inactive
Mabi (Mabiki)	2	6		inactive
Cdlc2 (Cytoplasmic dynein light chain 2)	1	5		inactive
Cdlc2 (Cytoplasmic dynein light chain 2)	2	9		inactive
CG34168	1	4		inactive
mRpL18 (mitochondrial ribosomal protein L18)	1	8		inactive
Svip (small VCP interacting protein)	1	8		inactive
Svip (small VCP interacting protein)	2	2		inactive
CG13138	1	3		inactive
ND-20 (NADH dehydrogenase (ubiquinone) 20 kDa subunit)	1	8		inactive
CG31769	1	7		inactive
enok (enoki mushroom)	1	6		inactive
CG11398	1	14		inactive
Git (G protein-coupled receptor kinase interacting ArfGAP)	1	4		inactive
Git (G protein-coupled receptor kinase interacting ArfGAP)	2	5		inactive
CG30062	1	7		inactive
CG1998	1	9		inactive
